In PubChem BioAssay AID624297 (National Center for Advancing Translational Sciences (NCATS), 2012):
Among all 340,000 compounds or so, about 6,200 (1.8%) were called active. The shares of active, inactive and inconclusive entries below differ from those in the screen. The call rests on the fitted dose curve; in most records, active means well fitted activation curve with a large enough effect; inconclusive means small, poorly fitted or top-dose-only effect; inactive means no such curve, though single readings can be large or run the other way. Potencies of inconclusive entries are doubtful fits and often do not repeat.

assay: A quantitative high throughput screen for small molecules that induce DNA re-replication in SW480 colon adenocarcinoma cells.; further: nearly all actives have a fitted effect of over 55% in size; on re-replication activation: % of control where 0% means no effect; details: Hoechst DNA content imaging, 48 h; re-replication activation: at 46.1 µM (top of the series) unless noted
Summary of the method: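 First, 250 cells per well were seeded. Next, compound or vehicle (23 nL) was pinned in, plates sat 48 hr at 37 C. Finally Hoechst was added for 40 min before fluorescence scanning.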
Potency means the concentration at half of the fitted maximal effect.

SMILES | re-replication activation | Potency
COc1cc(-c2nc3ccc4ccccc4c3c3c2CCC3)ccc1O | inactive: -0.791% | –
Cc1ccc(NC(=O)c2cc(=O)c3ccccc3o2)cc1 | – | inconclusive: 0.0046 µM [activator, full curve, poor fit]
CC(=O)c1sc(NC(=O)COc2ccc([N+](=O)[O-])cc2)nc1C | – | inconclusive: 11.6 µM [activator, partial curve, poor fit]
COc1ccc(C(CNC(=O)c2cccc(NS(=O)(=O)c3ccccc3)c2)N(C)C)cc1 (centres undefined) | inactive: -2.15% | –
CCSc1nsc(NC(=O)Nc2cccc(F)c2)n1 | – | inconclusive: 18.4 µM [activator, single point]
C/C(Cl)=C\Cn1c(O)c(N=NC(N)=S)c2cc(Br)ccc21 | – | inconclusive: 6.51 µM [activator, single point]
Cc1ccc(C)c(NC(=O)C2(C)CC3c4ccccc4C2c2ccccc23)c1 (centres undefined) | inactive: 13.1% | –
CCC(C)c1ccc(C(CC)NC(=O)C2CCCO2)cc1 (centres undefined) | – | inconclusive: 14.6 µM [activator, single point]
COc1ccc(C(=O)N2C(=O)c3ccc(N)cc3C2=O)cc1 | – | inconclusive: 32.6 µM [activator, partial curve, poor fit]
C#CCSc1nnc(-c2cccc3ccccc23)o1 | – | inconclusive: 18.4 µM [activator, single point]
CN(C)Cc1c(O)ccc2c(-c3ccccc3)cc(=O)oc12 | inactive: -7.53% | –
CCN1C(=O)/C(=C/C=C2/SCCN2C)SC1=S | inactive: -8.04% | –
COc1ccc(/C=C(/NC(=O)c2ccccc2)c2nc3ccccc3[nH]2)cc1OC | – | inconclusive: 29.1 µM [activator, single point]
Cc1ccc2nc3c(cc2c1)c(NC(=O)C1CCCO1)nn3CC(C)C (centres undefined) | – | inconclusive: 16.4 µM [activator, single point]
O=c1oc2c(O)cccc2cc1-c1nc2ccccc2[nH]1 | – | active: 3.26 µM
COc1ccc(NC(=O)c2oc3ccccc3c2NC(=O)C2CCCO2)cc1OC (centres undefined) | – | inconclusive: 6.51 µM [activator, partial curve, poor fit]
CC(C)C[C@H](NC(=O)c1nc[nH]c1C(=O)N[C@@H](CCCCN)C(=O)OC(C)(C)C)C(=O)OC(C)(C)C | – | inconclusive: 4.11 µM [activator, single point]
O=[N+]([O-])c1ccc2nc(-[n+]3c(-c4ccccc4)cc(-c4ccccc4)cc3-c3ccccc3)[nH]c2c1 | – | inconclusive: 23.1 µM [activator, partial curve, poor fit]
O=C(c1cc(COc2c(F)cccc2F)on1)N1CCN(C2CCCCC2)C(=O)C1 | inactive: -7.06% | –

Three compounds already listed, sorted by count of non-hydrogen atoms, smallest number first:
SMILES | re-replication activation | Potency
CCN1C(=O)/C(=C/C=C2/SCCN2C)SC1=S | inactive: -8.04% | –
O=c1oc2c(O)cccc2cc1-c1nc2ccccc2[nH]1 | – | active: 3.26 µM
Cc1ccc2nc3c(cc2c1)c(NC(=O)C1CCCO1)nn3CC(C)C (centres undefined) | – | inconclusive: 16.4 µM [activator, single point]
